Biological target: FGF2 (Homo sapiens) (UniProt P09038)
Test: activity in cells
Conditions: 2'-F all pyrimidines, purified recombinant protein, protein details: Peprotech
[1] = strong inhibition of FRS2/ERK phosphorylation in NIH3T3, FGF2 50 ng/ml
[2] = NIH3T3 FRS2/ERK phosphorylation, inhibition per figure legend, not listed among strong inhibitors, dose not given here

The chains behind the UniProt entries cited, without tags or fusion partners. Residues count along the entry.
UniProt P09038, 135-288: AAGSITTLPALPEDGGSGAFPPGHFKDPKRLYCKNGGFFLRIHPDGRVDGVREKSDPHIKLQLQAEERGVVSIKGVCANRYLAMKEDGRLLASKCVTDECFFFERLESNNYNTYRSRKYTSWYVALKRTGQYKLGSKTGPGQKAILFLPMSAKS

Sequence	functional effect of the aptamer [1]	also measured
GGGCUUGUUCUGGAUCGCAUCAGUACUAGGGCUCUUAGGAGUGACCAGUGUGUUGUAAGGCGAUGCUCAGAAGCGGAG [Apt11]	active	–
GGGCUUGUUCUGGAUCGCCGUUAAAUGUCUAGUAGUACUAUUCAUGUUUACGGAUUGCGGCGAUGCUCAGAAGCGGAG [Apt1]	–	functional effect of the aptamer [2]: active
GGGCUUGUUCUGGAUCGCCUGAUAAGCAGGAGGGUGACGGUGAUGGCAGCUGUUUGGGGGCGAUGCUCAGAAGCGGAG [Apt7]	active	–
GGGCUUGUUCUGGAUCGCCUUACGAUUAGAGGAUAUUAUAUUUACUCGAUUGUUGGGGCGAUGCUCAGAAGCGGAG [Apt6]	–	functional effect of the aptamer [2]: active
GGGCUUGUUCUGGAUCGCGAUGCAAGUUACCAGUGUAGCUAGUUACUAGGGCGUGUGUUGGCGAUGCUCAGAAGCGGAG [Apt9]	active	–
GGGCUUGUUCUGGAUCGCUCGUUGACUAGGGCGUACAUCGUGACCAGUGUCAGUUCAGGGCGAUGCUCAGAAGCGGAG [Apt10]	active	–
GGGGCAAGUUACCAGUGUAGCUAGUUACUAGGGCGUGUCCC [Apt36 (shortened Apt9)]	–	functional effect of the aptamer (strong inhibition of FRS2/ERK phosphorylation in NIH3T3, variant of Apt9, dose not given here): active
GGGUACUAGGGCUCUUAGGAGUGACCAGUGUGCCC [Apt38 (shortened Apt11)]	–	functional effect of the aptamer (strong inhibition of FRS2/ERK phosphorylation in NIH3T3, variant of Apt11, dose not given here): active

Reference: patent US20130039855
